In all, about 52,000 sequences went through this assay and about 210 (0.4%) were called active.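 How the source made its calls: active means gene whose silencing raises cell survival under the drug, median off-target-corrected z-score across its silencing RNAs 2 or more; inactive means the rest.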 Some of the results follow.

This test in a line: Resistance to Poly (ADP-Ribose) Polymerase inhibitor: Gene Identification via Genome-wide siRNA Screen. Particulars: mouse BRCA2 R2336H ES cells, olaparib, CellTiter-Glo viability; hits give high values. The gist of the method: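 Genome-wide siRNA screen (3 siRNAs/gene, 20 nM) in mouse ES cells carrying hypomorphic BRCA2 R2336H; olaparib 500 nM added 48 h post-transfection, CellTiter-Glo viability 72 h later. Normalized to plate-median negative control; MAD z-scores, gene median, seed-adjusted.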
(In general: In ATP-based viability assays light output follows the ATP content of the culture.)
Consider GGGAUACUCCAAGUUCCAUTT against Muc4, for which the z-score was inactive: 1.51. On to “GGAAAUCUUUAUACAAGGATT against 4930467B06Rik”, for which the z-score is inactive: 1.49. With GCCACUACUACAUCAAUGUTT against BC012256 the figure was inactive: 0.495; with GGAAGUCCAGGGAUACAUGTT against Erbb2, inactive: -0.898. Take GGACAAUCAGGAAUCAUAUTT against Recql: the z-score was inactive: -0.882. Then GGAGAAGUAUGGAGAGAUUTT against U2af1l4, with inactive: -0.604; and “CACUGAACAGAUCAGAGCATT against 1110013L07Rik”, with inactive: -1.64; and CCACAGCAAGAUGUGUAUGTT against Rnf125, with inactive: -0.0429.

As to GGUGAUUCUGGAUAAAUACTT against Tmprss4, the z-score was inactive: 0.915. With “GGAAGCGUAUUACGAAAGATT against 2810441A10Rik” the figure was inactive: 0.172. Turning to “GGGUAACUGGUUUGUAUGATT against C920025J10”, the z-score was inactive: -0.212. Then GGAAAUGACUUGUGAUGAUTT against Pik3ap1, with inactive: 2.55; and GCAGUUGGGCUCCUAUGAUTT against Mrps16, with inactive: -1.29; and GGCAUGAUGUUCAUGGAUATT against Nup62, with inactive: 1.81. On to “GCAAUCCUAUGAAGUUAAATT against 1700025J14Rik”, for which the z-score is inactive: -1.86. CCCAAUAACAUCUUAAGAUTT against Lyn: the z-score was inactive: -0.00574. Then “ACUCCUAUGAGCUAGCUGUTT against 2410039E07Rik”, with inactive: 0.372; and GGAUCUGAUCCAGACUUCUTT against Ndrl, with inactive: -2.16. For GGGAUAGCUGUCACCUUCUTT against Rad9, the z-score was inactive: -0.678. For the sequence AACACGGCUCUAGCCAAUCTT against Ypel4, the z-score was inactive: -0.524. Then GGCAUUUUAGUAAUAAGCATT against Mkln1, with inactive: -0.101. In the case of GGAACGAAUGAAAAGACUUTT against Tpp2, the z-score is inactive: -0.716. Then GGAAGUUGACUCCAUUUCCTT against Gpr143, with inactive: 0.106. Then GGUUACAGUGACACAGCCUTT against Slc16a8, with inactive: -0.943; and “GGAUUUUAGCUCUGAUUCATT against D130067I03Rik”, with inactive: -0.692; and GGAAAAAUUGUGCUCAACUTT against Suv420h1, with inactive: 0.92.

Regarding GGAGAUGAACAAGGACCUATT against Apoa1, the z-score was active: 1.02. Then CCGUGAGGAUUUCAAGCGATT against P2ry6, with inactive: -0.516; and CCACGAGUAGUAAAAAAUATT against AI504432, with inactive: -0.651. With CCUUAGACCUAACAAACAATT against Rab23 the figure was inactive: 0.934; with GCGAAGUCAAGCCUACUUUTT against B3gat1, inactive: 0.318; with GGUGUAUGAAUCUGUGCUGTT against Cldn5, inactive: -0.461. Then GGUGUGUUAUCGAUUUUACTT against Fut2, with inactive: 0.773; and CGUGCAGAUACCACUUCACTT against Podn, with inactive: -1.19; and GGCUCUUACAUAAACUCUATT against Tecta, with inactive: 0.205. GGUGGUCACCUAUUCAUGUTT against Daf1: the z-score was inactive: -0.424.

As to GGAUAUUAACUAUGGGUUUTT against Tlr2, the z-score was inactive: 0.965. Then GGUCCUAAAUUUCUACCAATT against Dnase1l1, with inactive: 0.774; and GGACCCUGACAUCAUUGUGTT against BC020025, with inactive: 0.0697; and “GGAACAGGAAUGGUAAUGCTT against 2610033C09Rik”, with inactive: 0.129. Turning to “GCUGAAUUUUACGAUGAUUTT against 4631426G04Rik”, the z-score was inactive: -1.91. Regarding GGGAGGUCAAAAACUUCCATT against Coq3, the z-score is inactive: 0.333. With “GCUUUGACAACCUCUACUCTT against 9130011E15Rik” the figure was inactive: 1.32. For GUCCCAAUACUACUUUUUUTT against V1rc20, the z-score is inactive: 0.353. For the sequence GCUGGUGACUUGUAAAAGCTT against Meox1, the z-score was inactive: 0.169. In the case of GGGUCAGUUCAUAUGCCUCTT against Laptm5, the z-score is inactive: 1.89.

On to CCCAGCUCACGUAUUUAUUTT against Pgf, for which the z-score is inactive: 0.478.

With CCAUUUGAAGAGUAUUCCCTT against Lrrc2, the z-score was inactive: 0.665.

In the case of GGCCUGGAGAAAAAACUUATT against Sfpq, the z-score was inactive: 0.181. In the case of CCUUAGCUAAAUUUACUGGTT against Bche, the z-score is inactive: 0.718. With GCAGACAAUUGGUUUGAUUTT against MGC27863 the figure was inactive: -0.778; with “CGCAACAGAUAGUAAAUAUTT against 1810047C23Rik”, inactive: -2.38. With GGGUGAAAUACUUCUUUGATT against Cxcl15 the figure was inactive: -0.654; with UGGUGGUGUUUUUUAACUCTT against Gm1705, inactive: 0.124; with GGCUCUAUCCACCAGUAAUTT against Cyp4a14, inactive: 0.774.

As for GGCAAAUAUUCAGUUUGGATT against Scarb2, the z-score is inactive: -0.695. Then GGAGAGUGAAGUGAAAAGCTT against Dhrs1, with inactive: 1.32; and GCAGAUUGACUUCUCGGCUTT against Akap2, with inactive: 0.866. With GCCAAGUUCAUUGGUGCUGTT against Atp5g1 the figure was inactive: 2.04. In the case of GCAAAUUUACCUCAGUGCUTT against MOR253-5, the z-score is inactive: 0.322. Regarding CCAAGACCAUCCAAUUCAUTT against Il6, the z-score is inactive: 0.47.

In the case of GCGCAUCCUAUUCCAGCACTT against Pctp, the z-score was inactive: -0.672.

For the sequence GGUGAUUAAGAAAGAGGAUTT against Exosc8, the z-score was inactive: -1.51. For “GGAAAAUGCCAUGAAAAAGTT against C130098D09”, the z-score is inactive: 0.451. In the case of “GGAUGCUACAGGAAGAGAATT against 5730568A12Rik”, the z-score is inactive: -0.316. Take “GGUCCUUCGUAGUUGUGGUTT against 5830484A20Rik”: the z-score was inactive: -0.0119. As to GCUCCAUUUCAGUCAUCGATT against Klrc1, the z-score was inactive: 0.584. Turning to GGUGAAGUAUUUGACUAUUTT against Mark3, the z-score is inactive: 0.704. As for CGUGCACUUAGAAAACCCGTT against Garnl3, the z-score is inactive: -0.909. With GGCAUGUUGAUGGGAAUUUTT against Srp9 the figure was inactive: -1.67. With GCACAAACCCUCGAACUUGTT against Nkx6-2 the figure was inactive: 0.043.

For “GGAAUCCUUUAUUCUUGUATT against 4931408L03Rik”, the z-score was inactive: -0.94. With GGGCCUCCUUCUCAUCAUUTT against Scarf2 the figure was inactive: -0.678; with GGGUAUUAAUGCCUCUGCATT against Ebi2, inactive: -0.725. With GGUGCUGAAGAUGUGUUGATT against Phospho1 the figure was inactive: -0.747. With CCAUAUUUGAAGAAGUCCATT against Espl1 the figure was inactive: -0.535; with “GGCCAAGAGGAUCAUGUCATT against 4933433C09Rik”, inactive: 0.396. As for CUAUUUGGUAGCCUAACUUTT against Acsl1, the z-score was inactive: -0.0528. With GCUACAGACUGAACAAUGATT against Rbm17, the z-score was inactive: -1. For CCGUUUUUCAACGACGAGUTT against Fcna, the z-score was inactive: 0.571. Consider CCGUUACUACAAAUUCUAUTT against Zcchc8, for which the z-score was inactive: -0.0793. On to CGAACCACUUGUUUAAAAUTT against Cops2, for which the z-score is inactive: -1.69. Consider “GCAAGACUGGCAAAGCUUCTT against C130022K22Rik”, for which the z-score was inactive: -0.466. With GCAGAAUAUUAACCAGUGUTT against Ptp4a2 the figure was inactive: 0.668; with GGAAGUCAAGUAGAACUGUTT against Agtr2, inactive: -0.604; with “GGUAAACCGAGUGAUGACCTT against 1700019E19Rik”, inactive: 0.285. Take GCUGAAUUGCUGGUAGAUUTT against AL022818: the z-score is inactive: -1.03.

Consider GGGUAGAGACUACUUAGUATT against Pramel7, for which the z-score is inactive: -0.925. Take GGGAAGGCUGUGAAUACAGTT against Syt7: the z-score is inactive: 1.83. Then “GGCUUUGACCUUUAUCACCTT against 4930556P03Rik”, with inactive: 0.0122; and “GGUUUUUGAAGAGUUAACATT against D16Ertd472e”, with inactive: 0.691.

On to CGGUUUUGACCUUCCACCUTT against Olfr110, for which the z-score is inactive: -0.377.

On to GCCUAUGCAGCUCUCUCUGTT against Acat3, for which the z-score is inactive: 0.495. With GGUUAUCUUCUCUGUAACGTT against AU022521 the figure was inactive: -0.856; with GGAGAUACAGAAAUUUCUCTT against Baat, inactive: 0.517. With “CCCACCUAAAGAGAACAAATT against 2900006K08Rik” the figure was inactive: -0.0729; with GGACAAAGAUGAAUAUGUGTT against Spag6, inactive: 0.0984. For the sequence GGUCAUUCUAGUCCAGGAUTT against Pkd1l2, the z-score was inactive: 0.908. Turning to GGAUCAUGAUUAGUUACAATT against Pdzrn3, the z-score is inactive: -1.47.

With “GGGAGCCAAUGAAAUCAAGTT against F830020C16Rik”, the z-score was inactive: 1.64.

As to “GGUUCUCUGAAAUAAACUUTT against 9530002B09Rik”, the z-score was inactive: -0.575. Then GGAGUGGACUCACGUCUAATT against Crsp3, with inactive: -0.634.

On to GCCAUCCGAUGCCUUAAUUTT against Mtap, for which the z-score is inactive: 0.0555. With GCUGAUUAUCACAUCAGUGTT against Dph2l1 the figure was inactive: 0.948.
